Experimental data published in article PMC6548132, “Engineered SUMO/protease system identifies Pdr6 as a bidirectional nuclear transport receptor” (The Journal of Cell Biology, 2019).
These are yes or no findings as the source states them, for the method shown. In cells and extracts the contact can be indirect. Some results given as binding are weak or reduced against the parent protein; the word gives no strength. Sequences can lack the tags named with a protein.

T1: H14-ZZ-NEDD8–tagged Ubc9 (yeast (S. cerevisiae)) (UniProt P50623)
T1 sequence: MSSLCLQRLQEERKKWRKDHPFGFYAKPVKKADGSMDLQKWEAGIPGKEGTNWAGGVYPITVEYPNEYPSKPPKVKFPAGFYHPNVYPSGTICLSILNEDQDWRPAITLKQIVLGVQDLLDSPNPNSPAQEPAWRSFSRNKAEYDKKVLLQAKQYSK


Target: T1, H14-ZZ-NEDD8–tagged Ubc9 (yeast (S. cerevisiae))
Experiment: pull-down; H14-ZZ-NEDD8-Ubc9 added to E. coli lysates each containing 3 µM of a different eGFP-tagged yeast NTR; anti-ZZ/ED affibody matrix, elution by tag cleavage; SDS-PAGE/Coomassie; only the target purified

binding	Binder
no binding (tested: 3 µM)	Mtr10 (eGFP-tagged, E. coli lysate) (protein, UniProt Q99189 1-972) MDNLQVSDIETALQCISSTASQDDKNKALQFLEQFQRSTVAWSICNEILSKEDPTNALLELNIFAAQTLRNKVTYDLSQLENNLPQFKDSLLTLLLSHNQKLIITQLNVALARLAIQFLEWQNPIFEIISLLNSSPSILLNFLRILPEETLDIASTSLTEVEFNSRIHELIDPIAEDVLKFLVSCIDLLQNTDGNSSSSISLEQILRCLNSWSYEFPVEQLLTVQPLINLVFETISNGNESDMEAFDSAIDCLCVILRESRDTTNEQLISALFHQLMLLQEKLLPTLFTDHPLNDEYDDDLLEGMTRLFVEAGEAWSVVISKNPDFFKPMVLVLLMLTCKNEDLDVVSYTFPFWFNFKQSLVLPRYQESRKAYSDIFVKLINGIITHLQYPSGQFSSKEEEDKFKDFRYHMGDVLKDCTAVVGTSEALSQPLIRIKSAIENNNSWQIMEAPLFSLRTMAKEISLTENTILPEIIKIICNLPEQAKIRYASTLVLGRYTEWTAKHPELLEVQLQYIFNGFQLHEGSSDMQSIITASSHALMFFCSDCSKLLVGYIDQLINFFLNVQSSIDIESQFELCQGLSAVINNQPEAKVSVIFQKLVDDNLRQIEALIPQWKANPTLLAPQIADKIDLLYALFEELKPRYNYPQQGSEPLLPRIEFIWKALRTLLVDAGAMTDSIIVERVAKLLRRIFERFHVFCEPILPSVAEFLIQGYLTTGFGSYLWCSGSLIVIFGDDESFPISPSLKDAVWKFALSQCETFILNFNKFDKLQLNDYHEAIIDFFSLISDLIMFYPGAFLNSTELLGPVLNVALECVNKLDNYDAYICILRCLDDIISWGFKTPPISTVSIEIVPDEWRKQVINEVVIAHGNQLILVLFIGLVTTFENTAHSDAISCIVKCLRILTEANNNDATICIDWIYKVVEQLGQVTLNERDNLAKAVVEGLNSKDYRKVREGIRAFVGWYSRKNINSRFE
binds	eGFP-tagged Pdr6 in E. coli lysate (protein, UniProt P32767 1-1081) MSSIHEVVALIEELYSPHPKHDVNQIQQSLQSIQKSEQGFHLANELLSDDKYSANVKYFGALTLTVQLNTRGENDYETLWNVFRSNLLYLTKFSTLYVSNPNMYGQSLIIIKKLMSNLSLIFTKINDPQLNNAGNENMIKQWNNPINTFIQLMSVQNQNINADQLLLDSINCSLTYEQLSQFVSLSQKHNELALTFTEVIVEDLTKFQTKRHSMSQIHEVVHEHLYISTMALINLNLTAQAVFNPTVFDCITAWINYISLTRSVSSSGRMDLSEIFQNLIDLMYQSTEGSDGYENAEKILTIFGNVFANDPLLMSYDLRQQIECIFLGVVRPDSGITDISNKNSWMLQYMNYLVTNDFFSELKELAICIVDFLQINTLSVCNKLFTNIQAADNGQVQDEYIQEYIKVLLQMTNFPLTPVLQEFFSVRMVDFWLDLSDAYTNLASETLRPNSIELSTQIFQQLINIYLPKISLSVKQRIIEEEGESTSVNEFEDFRNAVSDLAQSLWSILGNDNLTNVLIDGMGQMPAASDETLIIKDTDVLFRIETMCFVLNTILVDMTLSESPWIKNIVDANKFFNQNVISVFQTGFQTSASTKVSQILKLDFVRTSTTLIGTLAGYFKQEPFQLNPYVEALFQGLHTCTNFTSKNEQEKISNDKLEVMVIKTVSTLCETCREELTPYLMHFISFLNTVIMPDSNVSHFTRTKLVRSIGYVVQCQVSNGPEEQAKYILQLTNLLSGSIEHCLASSVQLQEQQDYINCLLYCISELATSLIQPTEIIENDALLQRLSEFQSFWSSDPLQIRSKIMCTIDKVLDNSIYCKNSAFVEIGCLIVGKGLNLPDGEPYFLKYNMSEVMNFVLRHVPNCELATCLPYFVYLLEKLISEFRKELTPQEFDFMFEKILLVYYDAYIINDPDLLQMTIGFVNNVLDVKPGLAIGSKHWTSFILPQFLKLIPSREKFTIVAVAKFWTKLINNKKYNQEELTTVRQQVSSIGGDLVYQIMYGLFHTQRSDLNSYTDLLRALVAKFPIEAREWLVAVLPQICNNPAGHEKFINKLLITRGSRAAGNVILQWWLDCTTLPNYQG
